Assay results as given in the supplement of paper PMC10849652.
The list shows a part of the results.

Amino acid sequences for entries named in this document (tags omitted). A change or cut given only in a name is not applied to a line headed by its entry.
UniProt Q93034, whole entry, looked up: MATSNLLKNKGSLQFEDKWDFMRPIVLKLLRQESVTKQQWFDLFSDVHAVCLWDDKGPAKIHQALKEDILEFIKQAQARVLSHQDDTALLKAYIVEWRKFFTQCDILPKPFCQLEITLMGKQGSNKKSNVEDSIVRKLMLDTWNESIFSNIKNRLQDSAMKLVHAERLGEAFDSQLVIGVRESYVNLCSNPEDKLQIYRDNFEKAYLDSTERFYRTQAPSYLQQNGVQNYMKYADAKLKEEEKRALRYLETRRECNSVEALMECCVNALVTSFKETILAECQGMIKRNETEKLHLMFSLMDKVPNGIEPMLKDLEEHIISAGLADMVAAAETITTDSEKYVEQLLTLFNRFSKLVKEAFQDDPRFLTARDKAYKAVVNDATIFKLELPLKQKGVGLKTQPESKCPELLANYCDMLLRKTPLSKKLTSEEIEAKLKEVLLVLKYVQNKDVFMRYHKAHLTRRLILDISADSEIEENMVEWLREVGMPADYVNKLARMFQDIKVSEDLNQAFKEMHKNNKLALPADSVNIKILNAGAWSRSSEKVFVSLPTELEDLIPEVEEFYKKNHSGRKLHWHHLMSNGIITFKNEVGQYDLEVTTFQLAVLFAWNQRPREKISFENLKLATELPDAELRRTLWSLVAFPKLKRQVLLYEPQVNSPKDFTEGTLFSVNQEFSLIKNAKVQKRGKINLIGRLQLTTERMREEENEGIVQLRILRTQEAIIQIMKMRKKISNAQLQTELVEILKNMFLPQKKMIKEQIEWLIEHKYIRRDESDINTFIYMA
UniProt Q9Y5B0: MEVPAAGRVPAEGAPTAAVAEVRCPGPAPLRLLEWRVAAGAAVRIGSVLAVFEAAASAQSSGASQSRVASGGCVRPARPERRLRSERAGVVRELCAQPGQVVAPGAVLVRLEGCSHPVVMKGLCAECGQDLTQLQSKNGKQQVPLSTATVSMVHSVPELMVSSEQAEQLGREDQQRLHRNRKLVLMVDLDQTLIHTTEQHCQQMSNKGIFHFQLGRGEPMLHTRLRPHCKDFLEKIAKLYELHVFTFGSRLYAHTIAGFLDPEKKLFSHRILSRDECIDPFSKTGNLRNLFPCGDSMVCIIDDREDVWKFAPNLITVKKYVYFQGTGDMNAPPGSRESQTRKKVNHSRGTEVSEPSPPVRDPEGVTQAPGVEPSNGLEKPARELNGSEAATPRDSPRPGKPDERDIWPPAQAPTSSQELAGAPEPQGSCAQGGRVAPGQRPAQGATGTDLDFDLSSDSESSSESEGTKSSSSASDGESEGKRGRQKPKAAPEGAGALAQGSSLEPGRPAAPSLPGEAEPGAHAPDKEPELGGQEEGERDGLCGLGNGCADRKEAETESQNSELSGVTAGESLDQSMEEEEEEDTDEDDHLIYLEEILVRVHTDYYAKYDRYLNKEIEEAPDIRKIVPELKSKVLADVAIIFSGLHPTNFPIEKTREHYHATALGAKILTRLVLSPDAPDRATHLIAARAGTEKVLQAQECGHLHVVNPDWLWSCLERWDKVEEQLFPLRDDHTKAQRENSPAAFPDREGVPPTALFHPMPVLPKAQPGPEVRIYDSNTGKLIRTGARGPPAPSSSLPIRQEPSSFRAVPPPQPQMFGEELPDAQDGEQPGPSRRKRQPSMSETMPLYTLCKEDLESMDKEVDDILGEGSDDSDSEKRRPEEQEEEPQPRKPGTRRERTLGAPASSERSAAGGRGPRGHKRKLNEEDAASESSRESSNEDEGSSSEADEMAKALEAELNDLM
UniProt P01036: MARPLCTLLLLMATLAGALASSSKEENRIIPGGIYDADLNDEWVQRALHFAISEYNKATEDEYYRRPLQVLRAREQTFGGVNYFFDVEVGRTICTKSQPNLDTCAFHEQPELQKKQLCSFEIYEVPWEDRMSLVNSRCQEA
UniProt Q9UJA2: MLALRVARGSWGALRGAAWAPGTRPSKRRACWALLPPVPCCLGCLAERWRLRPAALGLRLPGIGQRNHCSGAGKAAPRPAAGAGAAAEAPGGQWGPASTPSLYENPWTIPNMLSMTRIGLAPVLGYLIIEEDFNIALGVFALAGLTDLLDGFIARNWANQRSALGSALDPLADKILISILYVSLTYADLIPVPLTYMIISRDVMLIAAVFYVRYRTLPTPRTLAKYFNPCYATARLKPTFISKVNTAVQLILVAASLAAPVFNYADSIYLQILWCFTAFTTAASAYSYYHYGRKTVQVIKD
UniProt Q9BQA9: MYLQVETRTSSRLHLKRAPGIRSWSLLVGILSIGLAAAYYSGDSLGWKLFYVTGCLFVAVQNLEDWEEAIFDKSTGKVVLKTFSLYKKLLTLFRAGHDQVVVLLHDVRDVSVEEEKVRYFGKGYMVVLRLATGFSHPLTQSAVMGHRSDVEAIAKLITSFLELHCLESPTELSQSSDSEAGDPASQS
UniProt Q16619: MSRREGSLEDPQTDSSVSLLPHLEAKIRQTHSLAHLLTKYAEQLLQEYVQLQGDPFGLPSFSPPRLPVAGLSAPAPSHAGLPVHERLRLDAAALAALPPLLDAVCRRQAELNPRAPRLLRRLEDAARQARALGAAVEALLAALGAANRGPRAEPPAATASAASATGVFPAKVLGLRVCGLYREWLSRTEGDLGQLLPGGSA
UniProt P49711: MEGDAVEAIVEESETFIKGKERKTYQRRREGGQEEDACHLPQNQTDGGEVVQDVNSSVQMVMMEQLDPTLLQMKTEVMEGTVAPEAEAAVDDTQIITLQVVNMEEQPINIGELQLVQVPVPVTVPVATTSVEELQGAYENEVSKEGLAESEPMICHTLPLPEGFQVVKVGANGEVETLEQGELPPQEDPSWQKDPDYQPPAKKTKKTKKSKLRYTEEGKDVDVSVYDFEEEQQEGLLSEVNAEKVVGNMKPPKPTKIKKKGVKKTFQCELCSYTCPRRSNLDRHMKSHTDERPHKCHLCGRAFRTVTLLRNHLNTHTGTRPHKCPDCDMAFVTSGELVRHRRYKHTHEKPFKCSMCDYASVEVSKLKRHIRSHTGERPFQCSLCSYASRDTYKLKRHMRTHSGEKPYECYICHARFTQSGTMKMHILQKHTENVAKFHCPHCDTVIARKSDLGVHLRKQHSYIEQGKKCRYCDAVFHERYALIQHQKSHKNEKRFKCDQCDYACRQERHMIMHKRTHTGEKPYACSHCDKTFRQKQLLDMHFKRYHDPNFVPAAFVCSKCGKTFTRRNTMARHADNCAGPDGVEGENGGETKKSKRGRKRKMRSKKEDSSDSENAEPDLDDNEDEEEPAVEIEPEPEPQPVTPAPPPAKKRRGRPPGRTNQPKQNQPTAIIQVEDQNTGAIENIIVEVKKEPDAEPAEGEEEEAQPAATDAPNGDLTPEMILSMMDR
UniProt P68400, whole entry, looked up: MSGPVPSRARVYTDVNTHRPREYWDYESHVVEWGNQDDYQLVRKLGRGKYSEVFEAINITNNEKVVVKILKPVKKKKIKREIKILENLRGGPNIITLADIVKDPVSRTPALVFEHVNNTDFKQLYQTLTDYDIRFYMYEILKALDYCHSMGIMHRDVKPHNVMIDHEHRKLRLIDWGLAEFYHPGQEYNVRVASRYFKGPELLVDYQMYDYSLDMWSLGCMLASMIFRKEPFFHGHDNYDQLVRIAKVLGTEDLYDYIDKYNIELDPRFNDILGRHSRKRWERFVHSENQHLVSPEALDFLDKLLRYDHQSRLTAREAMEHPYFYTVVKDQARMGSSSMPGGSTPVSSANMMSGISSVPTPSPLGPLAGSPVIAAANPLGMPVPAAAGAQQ
UniProt Q9UBT7: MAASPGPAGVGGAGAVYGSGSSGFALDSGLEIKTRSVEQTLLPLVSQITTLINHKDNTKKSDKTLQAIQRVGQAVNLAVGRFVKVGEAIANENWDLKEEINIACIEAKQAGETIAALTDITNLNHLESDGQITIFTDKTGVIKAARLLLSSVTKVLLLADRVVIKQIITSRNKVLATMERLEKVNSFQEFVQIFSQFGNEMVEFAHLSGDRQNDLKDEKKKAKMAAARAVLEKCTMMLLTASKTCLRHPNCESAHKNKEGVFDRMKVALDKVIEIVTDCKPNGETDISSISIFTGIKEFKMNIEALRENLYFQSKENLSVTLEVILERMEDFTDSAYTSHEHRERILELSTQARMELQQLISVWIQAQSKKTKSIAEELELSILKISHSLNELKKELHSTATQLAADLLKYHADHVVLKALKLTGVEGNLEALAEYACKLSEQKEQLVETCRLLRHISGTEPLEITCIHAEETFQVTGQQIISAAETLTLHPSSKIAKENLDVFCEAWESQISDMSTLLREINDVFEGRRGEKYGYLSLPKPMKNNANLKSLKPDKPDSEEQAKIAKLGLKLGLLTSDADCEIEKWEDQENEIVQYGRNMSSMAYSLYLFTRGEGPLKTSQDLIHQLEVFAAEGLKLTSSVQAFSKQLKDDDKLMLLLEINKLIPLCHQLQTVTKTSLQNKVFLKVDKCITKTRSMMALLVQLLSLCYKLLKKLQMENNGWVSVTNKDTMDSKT
UniProt O95196: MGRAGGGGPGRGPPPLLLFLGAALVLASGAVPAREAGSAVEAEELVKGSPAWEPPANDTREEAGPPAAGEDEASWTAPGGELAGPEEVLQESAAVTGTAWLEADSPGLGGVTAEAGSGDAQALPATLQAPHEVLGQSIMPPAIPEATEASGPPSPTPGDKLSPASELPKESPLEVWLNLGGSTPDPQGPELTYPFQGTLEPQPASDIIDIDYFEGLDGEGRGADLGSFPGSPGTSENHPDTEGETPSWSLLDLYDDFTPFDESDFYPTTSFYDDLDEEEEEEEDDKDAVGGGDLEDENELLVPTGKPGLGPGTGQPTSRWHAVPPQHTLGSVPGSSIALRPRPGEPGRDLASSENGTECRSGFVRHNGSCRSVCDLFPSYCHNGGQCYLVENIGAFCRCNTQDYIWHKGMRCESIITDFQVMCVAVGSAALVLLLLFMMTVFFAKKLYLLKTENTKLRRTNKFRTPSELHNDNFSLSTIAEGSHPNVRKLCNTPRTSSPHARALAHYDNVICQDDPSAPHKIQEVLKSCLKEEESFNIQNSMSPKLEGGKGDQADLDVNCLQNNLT
UniProt Q70SY1: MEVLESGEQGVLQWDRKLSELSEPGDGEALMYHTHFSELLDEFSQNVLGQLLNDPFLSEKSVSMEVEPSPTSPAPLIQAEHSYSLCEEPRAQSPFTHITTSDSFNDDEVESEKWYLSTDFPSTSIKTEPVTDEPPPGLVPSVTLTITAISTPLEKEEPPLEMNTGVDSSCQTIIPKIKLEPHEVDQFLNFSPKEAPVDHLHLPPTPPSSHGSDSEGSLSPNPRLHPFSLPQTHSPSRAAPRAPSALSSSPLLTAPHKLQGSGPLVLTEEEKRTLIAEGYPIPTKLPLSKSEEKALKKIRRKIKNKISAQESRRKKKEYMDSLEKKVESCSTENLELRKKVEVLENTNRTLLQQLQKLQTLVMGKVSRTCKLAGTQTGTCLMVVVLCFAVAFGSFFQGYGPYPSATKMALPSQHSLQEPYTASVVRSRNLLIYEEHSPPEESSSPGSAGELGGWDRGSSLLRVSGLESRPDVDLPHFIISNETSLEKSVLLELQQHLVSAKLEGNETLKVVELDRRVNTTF
UniProt Q6UUV9: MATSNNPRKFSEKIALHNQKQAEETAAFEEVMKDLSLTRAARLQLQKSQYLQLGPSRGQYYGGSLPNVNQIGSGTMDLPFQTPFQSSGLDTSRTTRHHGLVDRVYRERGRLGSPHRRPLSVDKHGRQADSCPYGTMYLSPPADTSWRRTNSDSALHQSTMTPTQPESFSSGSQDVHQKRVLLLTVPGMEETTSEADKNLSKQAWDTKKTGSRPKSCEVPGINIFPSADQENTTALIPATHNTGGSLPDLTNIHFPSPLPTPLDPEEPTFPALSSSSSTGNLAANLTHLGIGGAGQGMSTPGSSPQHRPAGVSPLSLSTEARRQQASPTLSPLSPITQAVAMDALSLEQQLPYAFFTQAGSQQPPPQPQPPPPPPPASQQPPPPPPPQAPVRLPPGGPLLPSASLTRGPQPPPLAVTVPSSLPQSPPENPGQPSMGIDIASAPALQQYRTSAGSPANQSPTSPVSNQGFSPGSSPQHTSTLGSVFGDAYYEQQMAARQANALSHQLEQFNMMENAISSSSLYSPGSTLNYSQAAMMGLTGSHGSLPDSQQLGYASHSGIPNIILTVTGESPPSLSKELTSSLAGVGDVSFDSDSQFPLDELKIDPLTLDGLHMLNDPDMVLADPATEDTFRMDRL
UniProt Q96HD1: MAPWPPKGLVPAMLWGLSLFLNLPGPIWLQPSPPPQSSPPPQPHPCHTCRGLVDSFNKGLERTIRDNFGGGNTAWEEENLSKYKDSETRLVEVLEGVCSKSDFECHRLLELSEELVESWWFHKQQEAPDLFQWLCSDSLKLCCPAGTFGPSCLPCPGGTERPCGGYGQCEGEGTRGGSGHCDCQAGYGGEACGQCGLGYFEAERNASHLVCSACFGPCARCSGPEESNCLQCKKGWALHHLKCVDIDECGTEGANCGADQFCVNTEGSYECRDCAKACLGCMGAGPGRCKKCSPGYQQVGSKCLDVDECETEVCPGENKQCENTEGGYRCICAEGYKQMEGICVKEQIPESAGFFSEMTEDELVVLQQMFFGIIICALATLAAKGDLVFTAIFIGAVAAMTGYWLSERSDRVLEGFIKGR

Legend:
Test in all cases: log2 fold change, soluble protein after heating vs DMSO (PISA); higher = thermal stabilisation; K562 lysate, 10 uM; active = over 0.2 and 3.5 SD of the protein, either way, in both replicates (recomputed)
erlotinib = compound: C#Cc1cccc(Nc2ncnc3cc(OCCOC)c(OCCOC)cc23)c1 [erlotinib]
Procedure, shortened: (§1)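 To prepare the extract, K562 pellets were dounce-homogenised in PBS pH 7.4 with 1 mM MgCl2, giving crude material at 1 mg/mL protein. This was treated with 10 μM compound for 30 min, then heated in aliquots for 3 min over 48°C-58°C before pooling and addition of NP-40 to 0.5% at 4°C. Centrifugation at 21,000xg for 90 min left soluble protein in the supernatant, which TMTpro 16plex LC-MS/MS quantified with equalised channel sums. Results are log-two fold changes in thermal stability compared with solvent controls, from duplicates.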

[1] = compound: C/C(=N\NC(=O)C1=CC(=CC=C1)S(=O)(=O)N2CCOCC2)/C3=C(C=CC(=C3)Cl)O
Procedure, shortened: as §1

[2] = compound: C1=CC(=CC=C1C2=NC3=C(N2)C=C(C=C3)C(=O)N)OC4=CC=C(C=C4)Cl
Procedure, shortened: as §1

[3] = compound: C1=CC2=C(C=CC(=C2)/C=C\3/C(=O)NC(=NCC4=CC=CS4)S3)N=C1
Procedure, shortened: as §1

[4] = compound: C1=CC2=NC=CN=C2C=C1/C=C/3\C(=O)NC(=O)S3
Procedure, shortened: as §1

[5] = compound: C1=CC=C(C=C1)C2=NC(=C(N2)C3=CC=NC=C3)C4=CC(=C(C=C4)Cl)O
Procedure, shortened: as §1

[6] = compound: C1=CC=C2C(=C1)C3=NNC4=CC=CC(=C43)C2=O
Procedure, shortened: as §1

[7] = compound: C1CCN(C1)C(=O)NC2=CC=CC(=C2)NC3=NC=C(C(=N3)NCCC4=CN=CN4)Br
Procedure, shortened: as §1

[8] = compound: C1CN(CCC1(CC2=CC=C(C=C2)Cl)N)C3=NC=NC4=C3C=CN4
Procedure, shortened: as §1

IRAK-1-4 Inhibitor I = compound: C1COCCN1CCN2C3=CC=CC=C3N=C2NC(=O)C4=CC(=CC=C4)[N+](=O)[O-] [IRAK-1-4 Inhibitor I]
Procedure, shortened: as §1

ibrutinib = compound: C=CC(=O)N1CCC[C@@H](n2nc(-c3ccc(Oc4ccccc4)cc3)c3c(N)ncnc32)C1 [ibrutinib]
Procedure, shortened: as §1

[9] = compound: CC(=O)c1cnc2ccc(-c3cc(Cl)c(O)c(Cl)c3)nc2c1N[C@H]1CC[C@H](CN(C)C)CC1
Procedure, shortened: as §1

ralimetinib = compound: CC(C)(C)Cn1c(N)nc2ccc(-c3[nH]c(C(C)(C)C)nc3-c3ccc(F)cc3)nc21 [ralimetinib]
Procedure, shortened: as §1

[10] = compound: CC(C)(O)CC(=O)NCCn1ccc2ncnc(Nc3ccc(Oc4cccc(C(F)(F)F)c4)c(Cl)c3)c21
Procedure, shortened: as §1

[11] = compound: CC(C)C1=C2N=C(C=C(N2N=C1)NCC3=CC=CC=C3)NCCCCCCN
Procedure, shortened: as §1

[12] = compound: CC1=C(C(CC(=O)N1)C2=CC=C(C=C2)C(F)(F)F)C(=O)NC3=C(C=C4C(=C3)C=NN4)F
Procedure, shortened: as §1

[13] = compound: CC1=C(C2=C(C=C1)C(=O)C3=CC=CC=C3N2CCCN)C
Procedure, shortened: as §1

[14] = compound: CC1=C(C=C(C=C1)NC(=O)C2=CC(=CC=C2)C(C)(C)C#N)NC3=CC4=C(C=C3)N=CN(C4=O)C
Procedure, shortened: as §1

[15] = compound: CC1=C(C=C(C=C1)NC(=O)C2=CC(=CC=C2)N(C)C)NC(=O)C3=CC=C(C=C3)O
Procedure, shortened: as §1

[16] = compound: CC1=CC=C(C=C1)SC2=C3C=C(SC3=CN=C2)C(=O)N
Procedure, shortened: as §1

| Target | log2 fold change (erlotinib) | log2 fold change [1] | log2 fold change [2] | log2 fold change [3] | log2 fold change [4] | log2 fold change [5] | log2 fold change [6] | log2 fold change [7] | log2 fold change [8] | log2 fold change (IRAK-1-4 Inhibitor I) | log2 fold change (ibrutinib) | log2 fold change [9] | log2 fold change (ralimetinib) | log2 fold change [10] | log2 fold change [11] | log2 fold change [12] | log2 fold change [13] | log2 fold change [14] | log2 fold change [15] | log2 fold change [16] |
| --- | --- | --- | --- | --- | --- | --- | --- | --- | --- | --- | --- | --- | --- | --- | --- | --- | --- | --- | --- | --- |
| CUL5 (UniProt Q93034) | inactive: 0 | inactive: -0.035 | inactive: -0.008 | inactive: -0.009 | inactive: -0.006 | inactive: -0.008 | inactive: 0.023 | inactive: 0.006 | inactive: -0.003 | inactive: 0.003 | inactive: -0.001 | inactive: -0.008 | inactive: 0.004 | inactive: -0.027 | inactive: -0.004 | inactive: -0.02 | inactive: -0.007 | inactive: 0.004 | inactive: -0.004 | inactive: 0.007 |
| CTDP1 (UniProt Q9Y5B0) | inactive: 0.018 | inactive: 0.021 | inactive: 0.016 | inactive: 0.009 | inactive: -0.036 | inactive: 0 | inactive: 0.013 | inactive: 0.011 | inactive: 0.017 | inactive: -0.017 | inactive: 0.035 | inactive: -0.021 | inactive: 0.047 | inactive: -0.003 | inactive: 0.012 | inactive: 0.012 | inactive: 0.001 | inactive: 0.016 | inactive: -0.023 | inactive: -0.024 |
| CST4 (UniProt P01036) | inactive: 0.079 | – | inactive: -0.108 | – | inactive: -0.095 | inactive: 0 | – | inactive: -0.127 | inactive: 0.337 | inactive: 0.041 | inactive: 0.18 | inactive: -0.337 | inactive: -0.008 | inactive: 0.611 | inactive: 0.847 | – | inactive: 0.227 | – | inactive: -0.152 | inactive: -0.097 |
| CTSF (UniProt Q9UBX1) | inactive: -0.006 | – | inactive: 0.158 | – | – | inactive: 0.076 | – | – | – | inactive: -0.069 | – | – | inactive: 0.386 | inactive: 0.008 | inactive: 0.076 | – | – | – | inactive: 0.012 | – |
| CRLS1 (UniProt Q9UJA2) | inactive: 0.074 | – | inactive: -0.085 | – | inactive: 0.087 | inactive: 0.056 | – | – | – | inactive: -0.021 | inactive: -0.023 | inactive: -0.008 | inactive: 0.079 | inactive: -0.027 | inactive: -0.102 | inactive: -0.049 | – | inactive: 0.066 | inactive: 0.058 | inactive: 0.048 |
| CYBC1 (UniProt Q9BQA9) | inactive: 0.002 | – | inactive: -0.011 | – | inactive: 0.019 | inactive: -0.008 | – | inactive: 0.095 | inactive: 0.03 | inactive: 0.088 | inactive: -0.024 | inactive: 0.005 | inactive: 0.093 | inactive: -0.201 | inactive: -0.002 | inactive: -0.015 | inactive: 0.045 | inactive: 0.108 | inactive: -0.069 | inactive: 0.019 |
| CTF1 (UniProt Q16619) | inactive: -0.067 | inactive: 0.032 | inactive: 0.022 | inactive: -0.054 | – | inactive: -0.154 | inactive: 0.043 | inactive: 0.182 | inactive: 0.033 | inactive: 0.082 | – | inactive: 0.111 | inactive: -0.099 | inactive: 0.037 | inactive: 0.056 | – | inactive: 0.068 | inactive: 0.11 | inactive: -0.209 | inactive: -0.015 |
| CTCF (UniProt P49711) | inactive: -0.002 | inactive: -0.066 | inactive: -0.016 | inactive: -0.096 | inactive: -0.022 | inactive: -0.001 | inactive: -0.016 | inactive: 0.046 | inactive: 0.011 | inactive: 0.01 | inactive: -0.025 | inactive: -0.024 | inactive: -0.004 | inactive: -0.054 | inactive: -0.008 | inactive: -0.013 | inactive: -0.026 | inactive: 0.013 | inactive: 0.017 | inactive: 0.006 |
| CSNK2A1 (UniProt P68400) | inactive: 0.005 | inactive: -0.111 | inactive: -0.02 | inactive: 0.225 | active: 0.356 | inactive: 0.017 | inactive: 0.219 | inactive: 0.112 | inactive: -0.02 | inactive: 0 | inactive: -0.041 | active: 0.468 | inactive: 0.002 | inactive: -0.028 | inactive: -0.054 | inactive: -0.039 | inactive: 0.158 | inactive: -0.078 | inactive: -0.01 | inactive: 0.002 |
| CUX1 isoform 2 (UniProt Q13948) | inactive: -0.029 | inactive: -0.003 | inactive: -0.229 | inactive: 0.034 | – | inactive: -0.011 | inactive: 0.02 | inactive: -0.015 | inactive: -0.008 | inactive: 0.029 | – | inactive: 0.07 | inactive: -0.069 | inactive: 0.052 | inactive: -0.16 | – | inactive: -0.027 | inactive: 0.385 | inactive: 0.043 | inactive: -0.086 |
| CTNNAL1 (UniProt Q9UBT7) | inactive: -0.03 | inactive: 0.053 | inactive: -0.063 | inactive: -0.009 | – | – | inactive: -0.119 | inactive: 0.039 | inactive: 0.012 | – | – | inactive: -0.023 | – | – | inactive: 0.001 | inactive: 0.024 | inactive: -0.266 | inactive: 0.06 | – | inactive: -0.046 |
| CSNK1G1 (UniProt Q9HCP0) | inactive: -0.246 | – | inactive: 0.177 | – | inactive: 0.107 | – | – | inactive: 0.093 | inactive: -0.152 | – | inactive: -0.019 | inactive: 0.527 | – | – | inactive: 0.005 | – | inactive: -0.091 | – | – | inactive: 0.39 |
| CSPG5 isoform 2 (UniProt O95196) | inactive: -0.448 | inactive: 0.207 | inactive: -0.109 | inactive: -0.431 | inactive: 0.108 | inactive: -0.085 | inactive: -0.066 | – | – | inactive: 0.014 | inactive: 0.001 | – | inactive: -0.109 | inactive: 0.087 | inactive: 0.015 | inactive: -0.451 | – | inactive: 0.012 | inactive: 0.031 | – |
| CRYL1 (UniProt Q9Y2S2) | inactive: -0.082 | inactive: -0.042 | inactive: 0.136 | inactive: 0.038 | – | – | inactive: -0.024 | – | – | – | – | inactive: 0.085 | – | – | inactive: -0.209 | – | inactive: -0.127 | inactive: -0.13 | – | inactive: 0.145 |
| CREB3L2 (UniProt Q70SY1) | inactive: -0.004 | inactive: 0.013 | inactive: -0.02 | inactive: -0.187 | inactive: -0.01 | inactive: 0.027 | inactive: 0.067 | inactive: 0.007 | inactive: 0.043 | inactive: 0.03 | inactive: -0.029 | inactive: 0.002 | inactive: -0.133 | inactive: -0.061 | inactive: -0.031 | inactive: 0.102 | inactive: -0.135 | – | inactive: 0.061 | inactive: -0.148 |
| CUL9 (UniProt Q8IWT3) | inactive: -0.099 | – | inactive: 0.028 | – | inactive: 0.089 | – | – | – | – | – | inactive: -0.064 | inactive: 0.048 | – | – | inactive: 0.07 | inactive: -0.028 | – | inactive: 0.221 | – | inactive: 0.067 |
| CSRNP2 (UniProt Q9H175) | inactive: -0.049 | – | inactive: -0.097 | – | – | inactive: 0.024 | – | – | – | inactive: -0.095 | – | – | inactive: -0.066 | inactive: 0.15 | inactive: 0.127 | – | inactive: 0.203 | – | inactive: -0.037 | – |
| CRTC1 (UniProt Q6UUV9) | inactive: -0.046 | inactive: 0.014 | inactive: -0.035 | inactive: -0.062 | inactive: -0.074 | inactive: 0.042 | inactive: -0.148 | inactive: 0.1 | inactive: 0.036 | inactive: 0.084 | inactive: 0.091 | inactive: 0.072 | inactive: -0.083 | inactive: -0.061 | inactive: -0.007 | – | inactive: -0.11 | inactive: -0.008 | inactive: 0.01 | inactive: -0.069 |
| CROCC2 (UniProt H7BZ55) | inactive: -0.066 | – | inactive: -0.09 | – | inactive: -0.04 | – | – | inactive: -0.079 | inactive: -0.032 | – | inactive: 0.228 | inactive: -0.021 | – | – | inactive: -0.06 | – | inactive: -0.109 | inactive: 0.086 | – | inactive: -0.011 |
| CRELD1 isoform 2 (UniProt Q96HD1) | inactive: -0.031 | inactive: -0.166 | inactive: 0.05 | inactive: -0.094 | inactive: 0.049 | inactive: 0.008 | inactive: 0.096 | inactive: -0.06 | inactive: -0.064 | inactive: 0.087 | inactive: 0.062 | inactive: -0.033 | inactive: -0.006 | inactive: -0.061 | inactive: -0.064 | inactive: -0.03 | inactive: -0.039 | – | inactive: -0.035 | inactive: 0.017 |

Exported bar-delimited: entries from further up.
Target | log2 fold change (erlotinib) | log2 fold change [1] | log2 fold change [2] | log2 fold change [3] | log2 fold change [4] | log2 fold change [5] | log2 fold change [6] | log2 fold change [7] | log2 fold change [8] | log2 fold change (IRAK-1-4 Inhibitor I) | log2 fold change (ibrutinib) | log2 fold change [9] | log2 fold change (ralimetinib) | log2 fold change [10] | log2 fold change [11] | log2 fold change [12] | log2 fold change [13] | log2 fold change [14] | log2 fold change [15] | log2 fold change [16]
CTCF (UniProt P49711) | inactive: -0.002 | inactive: -0.066 | inactive: -0.016 | inactive: -0.096 | inactive: -0.022 | inactive: -0.001 | inactive: -0.016 | inactive: 0.046 | inactive: 0.011 | inactive: 0.01 | inactive: -0.025 | inactive: -0.024 | inactive: -0.004 | inactive: -0.054 | inactive: -0.008 | inactive: -0.013 | inactive: -0.026 | inactive: 0.013 | inactive: 0.017 | inactive: 0.006
CSNK2A1 (UniProt P68400) | inactive: 0.005 | inactive: -0.111 | inactive: -0.02 | inactive: 0.225 | active: 0.356 | inactive: 0.017 | inactive: 0.219 | inactive: 0.112 | inactive: -0.02 | inactive: 0 | inactive: -0.041 | active: 0.468 | inactive: 0.002 | inactive: -0.028 | inactive: -0.054 | inactive: -0.039 | inactive: 0.158 | inactive: -0.078 | inactive: -0.01 | inactive: 0.002
